{"source": "PubChem BioAssay AID192", "about": "(DTP/NCI, 2004)", "test_system": "BDF1 mice, B16 melanoma ip, median survival T/C", "test": "NCI In Vivo Anticancer Drug Screen. Data for tumor model B16 Melanoma (intraperitoneal) in B6D2F1 (BDF1) mice", "conditions": "T/C endpoint: median survival time, higher T/C = longer survival", "description": "The antitumor activity of compounds was measured in mice bearing transplantable tumors. Survival or tumor size were measured and the results are expressed as the measurement made in the treated group (T) divided by the measurement made in the vehicle treated control group (C). The tumor model used in this assay is B16 Melanoma (intraperitoneal) in B6D2F1 (BDF1) mice", "key": {"[1]": {"conditions": "dose: 6.25 mg/kg/injection, schedule: Q01DX009 (ip), vehicle: saline"}, "[2]": {"conditions": "dose: 12.5 mg/kg/injection, schedule: Q01DX009 (ip), vehicle: saline"}, "[3]": {"conditions": "dose: 25.0 mg/kg/injection, schedule: Q01DX009 (ip), vehicle: saline"}, "[4]": {"conditions": "dose: 50.0 mg/kg/injection, schedule: Q01DX009 (ip), vehicle: saline"}, "[5]": {"conditions": "dose: 100.0 mg/kg/injection, schedule: Q01DX009 (ip), vehicle: saline"}, "[6]": {"conditions": "dose: 200.0 mg/kg/injection, schedule: Q01DX009 (ip), vehicle: saline"}}, "note": "The list shows only some results of the screen, not a fair sample: it gathers some chemical classes. Not every dose and run of a compound is shown. T/C gives the treated animals as a percentage of the vehicle group. Where survival is the endpoint, this PubChem deposit counts one and a half times the control or more as active, and values a quarter to a half above the control carry no call in these data; other NCI protocols may use other cut-offs. Some entries show no survivor count and are marked so; the dose need not have been tolerated. Schedules are NCI's codes, taken here to give the interval after Q, in days (D) or hours (H), and the number of doses after X. Signs of the kind (2×) count equal records among those shown. Some entries were tested several times; their values stand side by side, smallest first.", "data": [{"smiles": "ClCCN(CCCl)C12CC3CC(CC(C3)C1)C2", "values": [{"measurement": "T/C", "setting": "dose: 0.12 mg/kg/injection, schedule: Q01DX009 (ip), vehicle: saline with Tween-80", "value": "98 % of control [survivor count not shown]"}, {"measurement": "T/C", "setting": "dose: 0.25 mg/kg/injection, schedule: Q01DX009 (ip), vehicle: saline with Tween-80", "value": "106 % of control [survivor count not shown]"}, {"measurement": "T/C", "setting": "dose: 0.5 mg/kg/injection, schedule: Q01DX009 (ip), vehicle: saline with Tween-80", "value": "102 % of control [survivor count not shown]"}, {"measurement": "T/C", "setting": "dose: 1.0 mg/kg/injection, schedule: Q01DX009 (ip), vehicle: saline with Tween-80", "value": "128 % of control [survivor count not shown]"}]}, {"smiles": "CC(OC(=O)C(O)(c1ccccc1)c1ccccc1)C1CCCCN1C", "note": "(stereo not drawn)", "values": [{"measurement": "T/C", "setting": "dose: 0.19 mg/kg/injection, schedule: Q01DX009 (ip), vehicle: Klucel (hydroxypropylcellulose) (HPC)", "value": "100 % of control [survivor count not shown]"}, {"measurement": "T/C", "setting": "dose: 0.39 mg/kg/injection, schedule: Q01DX009 (ip), vehicle: Klucel (hydroxypropylcellulose) (HPC)", "value": "105 % of control [survivor count not shown]"}, {"measurement": "T/C", "setting": "dose: 0.78 mg/kg/injection, schedule: Q01DX009 (ip), vehicle: Klucel (hydroxypropylcellulose) (HPC)", "value": "94 % of control [survivor count not shown]"}, {"measurement": "T/C", "setting": "dose: 1.56 mg/kg/injection, schedule: Q01DX009 (ip), vehicle: Klucel (hydroxypropylcellulose) (HPC)", "value": "104 % of control [survivor count not shown]"}, {"measurement": "T/C", "setting": "dose: 3.12 mg/kg/injection, schedule: Q01DX009 (ip), vehicle: Klucel (hydroxypropylcellulose) (HPC)", "value": "122 % of control [survivor count not shown]"}]}, {"smiles": "ClCCN1CCCC1CCl", "note": "(stereo not drawn)", "values": [{"measurement": "T/C", "setting": "dose: 0.75 mg/kg/injection, schedule: Q01DX009 (ip), vehicle: saline", "value": "116 % of control [survivor count not shown]"}, {"measurement": "T/C", "setting": "dose: 1.5 mg/kg/injection, schedule: Q01DX009 (ip), vehicle: saline", "value": "131 % of control [survivor count not shown]"}, {"measurement": "T/C", "setting": "dose: 3.0 mg/kg/injection, schedule: Q01DX009 (ip), vehicle: saline", "value": "150 % of control [survivor count not shown]"}, {"measurement": "T/C", "setting": "dose: 375.0 micrograms/kg/injection, schedule: Q01DX009 (ip), vehicle: saline", "value": "97 [survivor count not shown] and 105 % of control [survivor count not shown]"}, {"measurement": "T/C", "setting": "dose: 750.0 micrograms/kg/injection, schedule: Q01DX009 (ip), vehicle: saline", "value": "107 % of control [survivor count not shown] (2×)"}, {"measurement": "T/C", "setting": "dose: 1500.0 micrograms/kg/injection, schedule: Q01DX009 (ip), vehicle: saline", "value": "122 [survivor count not shown] and 129 % of control [survivor count not shown]"}, {"measurement": "T/C", "setting": "dose: 3000.0 micrograms/kg/injection, schedule: Q01DX009 (ip), vehicle: saline", "value": "141 [survivor count not shown] and 148 % of control [survivor count not shown]"}]}, {"smiles": "BrCCN(CCBr)Cc1ccccc1", "values": [{"measurement": "T/C", "setting": "dose: 0.25 mg/kg/injection, schedule: Q04DX003 (ip), vehicle: saline with Tween-80", "value": "99 % of control [survivor count not shown]"}, {"measurement": "T/C", "setting": "dose: 0.5 mg/kg/injection, schedule: Q04DX003 (ip), vehicle: saline with Tween-80", "value": "104 % of control [survivor count not shown]"}, {"measurement": "T/C", "setting": "dose: 0.9 mg/kg/injection, schedule: Q01DX009 (ip), vehicle: carboxymethylcellulose (CMC)", "value": "103 % of control [survivor count not shown]"}, {"measurement": "T/C", "setting": "dose: 1.0 mg/kg/injection, schedule: Q04DX003 (ip), vehicle: saline with Tween-80", "value": "98 % of control [survivor count not shown]"}, {"measurement": "T/C", "setting": "dose: 1.9 mg/kg/injection, schedule: Q01DX009 (ip), vehicle: carboxymethylcellulose (CMC)", "value": "92 % of control [survivor count not shown]"}, {"measurement": "T/C", "setting": "dose: 1.9 mg/kg/injection, schedule: Q04DX003 (ip), vehicle: saline with Tween-80", "value": "138 % of control [survivor count not shown]"}, {"measurement": "T/C", "setting": "dose: 2.0 mg/kg/injection, schedule: Q04DX003 (ip), vehicle: saline with Tween-80", "value": "115 % of control [survivor count not shown]"}, {"measurement": "T/C", "setting": "dose: 3.8 mg/kg/injection, schedule: Q01DX009 (ip), vehicle: carboxymethylcellulose (CMC)", "value": "97 % of control [survivor count not shown]"}, {"measurement": "T/C", "setting": "dose: 7.5 mg/kg/injection, schedule: Q01DX009 (ip), vehicle: carboxymethylcellulose (CMC)", "value": "105 % of control [survivor count not shown]"}, {"measurement": "T/C", "setting": "dose: 15.0 mg/kg/injection, schedule: Q01DX009 (ip), vehicle: carboxymethylcellulose (CMC)", "value": "100 % of control [survivor count not shown]"}]}, {"smiles": "O=C(OC1CCCN(CO)C1)C(O)(c1ccccc1)c1ccccc1", "note": "(stereo not drawn)", "values": [{"measurement": "T/C", "setting": "[1]", "value": "107 % of control [survivor count not shown]"}, {"measurement": "T/C", "setting": "[2]", "value": "100 % of control [survivor count not shown]"}, {"measurement": "T/C", "setting": "[3]", "value": "103 % of control [survivor count not shown]"}, {"measurement": "T/C", "setting": "[4]", "value": "100 % of control [survivor count not shown]"}, {"measurement": "T/C", "setting": "[5]", "value": "98 % of control [survivor count not shown]"}]}, {"smiles": "CN1CCCC(OC(=O)C(O)(c2ccccc2)C2CCCCC2)C1", "note": "(stereo not drawn)", "values": [{"measurement": "T/C", "setting": "[1]", "value": "102 % of control [survivor count not shown]"}, {"measurement": "T/C", "setting": "[2]", "value": "105 % of control [survivor count not shown]"}, {"measurement": "T/C", "setting": "[3]", "value": "113 % of control [survivor count not shown]"}]}, {"smiles": "CN1CCCC(OC(=O)C(O)(c2ccccc2)C2CCCC2)C1", "note": "(stereo not drawn)", "values": [{"measurement": "T/C", "setting": "dose: 0.09 mg/kg/injection, schedule: Q01DX009 (ip), vehicle: saline", "value": "110 % of control [survivor count not shown]"}, {"measurement": "T/C", "setting": "dose: 0.19 mg/kg/injection, schedule: Q01DX009 (ip), vehicle: saline", "value": "117 % of control [survivor count not shown]"}, {"measurement": "T/C", "setting": "dose: 0.39 mg/kg/injection, schedule: Q01DX009 (ip), vehicle: saline", "value": "112 % of control [survivor count not shown]"}, {"measurement": "T/C", "setting": "dose: 0.78 mg/kg/injection, schedule: Q01DX009 (ip), vehicle: saline", "value": "112 % of control [survivor count not shown]"}, {"measurement": "T/C", "setting": "dose: 1.56 mg/kg/injection, schedule: Q01DX009 (ip), vehicle: saline", "value": "111 % of control [survivor count not shown]"}]}, {"smiles": "CN1CCC(OC(=O)C(O)(c2ccccc2)C2CCCC2)C1", "note": "(stereo not drawn)", "values": [{"measurement": "T/C", "setting": "[2]", "value": "107 % of control [survivor count not shown]"}, {"measurement": "T/C", "setting": "[3]", "value": "100 % of control [survivor count not shown]"}, {"measurement": "T/C", "setting": "[4]", "value": "100 % of control [survivor count not shown]"}, {"measurement": "T/C", "setting": "[5]", "value": "105 % of control [survivor count not shown]"}, {"measurement": "T/C", "setting": "[6]", "value": "91 % of control [survivor count not shown]"}]}, {"smiles": "ClCCNCCBr", "values": [{"measurement": "T/C", "setting": "dose: 1.25 mg/kg/injection, schedule: Q01DX009 (ip), vehicle: saline", "value": "100 [survivor count not shown], 111 [survivor count not shown], 115 % of control [survivor count not shown]"}, {"measurement": "T/C", "setting": "dose: 2.5 mg/kg/injection, schedule: Q01DX009 (ip), vehicle: saline", "value": "113 [survivor count not shown], 121 [survivor count not shown], 127 % of control [survivor count not shown]"}, {"measurement": "T/C", "setting": "dose: 2.5 mg/kg/injection, schedule: Q04DX003 (ip), vehicle: saline", "value": "106 % of control [survivor count not shown]"}, {"measurement": "T/C", "setting": "dose: 3.3 mg/kg/injection, schedule: Q01DX009 (ip), vehicle: saline", "value": "116 % of control [survivor count not shown]"}, {"measurement": "T/C", "setting": "dose: 5.0 mg/kg/injection, schedule: Q01DX009 (ip), vehicle: saline", "value": "124 [survivor count not shown], 136 [survivor count not shown], 139 % of control [survivor count not shown]"}, {"measurement": "T/C", "setting": "dose: 5.0 mg/kg/injection, schedule: Q04DX003 (ip), vehicle: saline", "value": "108 % of control [survivor count not shown]"}, {"measurement": "T/C", "setting": "dose: 7.5 mg/kg/injection, schedule: Q01DX009 (ip), vehicle: saline", "value": "122 % of control [survivor count not shown]"}, {"measurement": "T/C", "setting": "dose: 10.0 mg/kg/injection, schedule: Q04DX003 (ip), vehicle: saline", "value": "106 % of control [survivor count not shown]"}, {"measurement": "T/C", "setting": "dose: 20.0 mg/kg/injection, schedule: Q04DX003 (ip), vehicle: saline", "value": "120 % of control [survivor count not shown]"}]}, {"smiles": "CN1CCN(NCCN2CCCC(OC(=O)C(O)(c3ccccc3)c3ccccc3)C2)CC1", "note": "(stereo not drawn)", "values": [{"measurement": "T/C", "setting": "[2]", "value": "104 % of control [survivor count not shown]"}, {"measurement": "T/C", "setting": "[3]", "value": "99 % of control [survivor count not shown]"}, {"measurement": "T/C", "setting": "[4]", "value": "96 % of control [survivor count not shown]"}, {"measurement": "T/C", "setting": "[5]", "value": "95 % of control [survivor count not shown]"}, {"measurement": "T/C", "setting": "[6]", "value": "100 % of control [survivor count not shown]"}]}]}
